Results deposited as PubChem BioAssay AID1508588 (Peter MacCallum Cancer Centre, 2020).
Purpose: 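Which gene losses make BRAF-mutant melanoma cells more responsive to vemurafenib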 (primary screen). Cells: human WM266.4 melanoma cells (BRAF V600 mutant). Reagent: siRNA pool against human genes, 40 nM. Duration: 96 h from transfection to read-out. Conditions: vemurafenib 300 nM (about IC25), added 48 h after transfection, for 48 h; comparison arm got DMSO vehicle only. Detection: 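Cell gain (DAPI nuclei at end minus before drug, mean of two replicates) and medium lactate by absorbance per cell, both as ratio to non-targeting siRNA, also grouped into fold-change classes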. Reading the numbers: cell gain with vemurafenib: higher = more cell gain than with non-targeting siRNA; lactate per cell with vemurafenib: higher = more lactate made per cell. Active means: 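a knock-down counts as enhancing when its fold-change classes with vehicle and with vemurafenib, taken together, show a stronger drug effect on cell gain or lactate per cell; exact class pairs not stated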. Calls: active = enhances vemurafenib effect; inactive = no enhancement seen.
In all, the deposit lists about 18,000 reagents; this is a random part of them. In the full data, 790 (4.4%) are marked active. 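Calls rest on a combination of fold-change classes in drug and vehicle arms, not all shown here.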

ADH7 (alcohol dehydrogenase 7 (class IV), mu or sigma polypeptide)
- cell gain with vemurafenib: 0.17
- lactate per cell with vemurafenib: 1.92
- activity call: inactive

RRBP1 (ribosome binding protein 1)
- cell gain with vemurafenib: 1.04
- lactate per cell with vemurafenib: 1.07
- activity call: inactive

ARL14EP (ARF like GTPase 14 effector protein)
- cell gain with vemurafenib: 0.55
- lactate per cell with vemurafenib: 0.33
- activity call: inactive

NFYB (nuclear transcription factor Y subunit beta)
- cell gain with vemurafenib: 0.76
- lactate per cell with vemurafenib: 1.46
- activity call: inactive

SLC4A9
- cell gain with vemurafenib: 0.87
- lactate per cell with vemurafenib: 0.82
- activity call: inactive

CCN3 (cellular communication network factor 3)
- cell gain with vemurafenib: 0.77
- lactate per cell with vemurafenib: 0.57
- activity call: inactive

EPGN (epithelial mitogen)
- cell gain with vemurafenib: 0.31
- lactate per cell with vemurafenib: 0.64
- activity call: inactive

METTL17 (methyltransferase like 17)
- cell gain with vemurafenib: 0.83
- lactate per cell with vemurafenib: 0.71
- activity call: inactive

XKR8 (XK related 8)
- cell gain with vemurafenib: 0.54
- lactate per cell with vemurafenib: 1.15
- activity call: inactive

TXN2 (thioredoxin 2)
- cell gain with vemurafenib: 0.01
- lactate per cell with vemurafenib: 0.94
- activity call: inactive

Laid out differently: results already given.
XKR8 (XK related 8) — cell gain with vemurafenib = 0.54; lactate per cell with vemurafenib = 1.15; activity call = inactive
TXN2 (thioredoxin 2) — cell gain with vemurafenib = 0.01; lactate per cell with vemurafenib = 0.94; activity call = inactive

Additional records follow.
SSPOP (SCO-spondin, pseudogene)
- cell gain with vemurafenib: 0.62
- lactate per cell with vemurafenib: 1.02
- activity call: inactive

ERRFI1 (ERBB receptor feedback inhibitor 1)
- cell gain with vemurafenib: 0.44
- lactate per cell with vemurafenib: 1.22
- activity call: inactive

STN1 (STN1 subunit of CST complex)
- cell gain with vemurafenib: 0.66
- lactate per cell with vemurafenib: 1.73
- activity call: inactive

ACTBL2 (actin beta like 2)
- cell gain with vemurafenib: 0.04
- lactate per cell with vemurafenib: -0.18
- activity call: active

AHSA1 (activator of HSP90 ATPase activity 1)
- cell gain with vemurafenib: 0.19
- lactate per cell with vemurafenib: 0.89
- activity call: inactive

MARF1 (meiosis regulator and mRNA stability factor 1)
- cell gain with vemurafenib: 0.67
- lactate per cell with vemurafenib: 0.76
- activity call: inactive

SERPINB4 (serpin family B member 4)
- cell gain with vemurafenib: 0.58
- lactate per cell with vemurafenib: 1.12
- activity call: inactive

SLC9A8
- cell gain with vemurafenib: 0.74
- lactate per cell with vemurafenib: 0.64
- activity call: inactive

KIAA0319
- cell gain with vemurafenib: 0.54
- lactate per cell with vemurafenib: 1.25
- activity call: inactive

HOXB2 (homeobox B2)
- cell gain with vemurafenib: 0.96
- lactate per cell with vemurafenib: 0.55
- activity call: inactive

SIK1 (salt inducible kinase 1)
- cell gain with vemurafenib: 0.85
- lactate per cell with vemurafenib: 0.47
- activity call: inactive

GSTM1 (glutathione S-transferase mu 1)
- cell gain with vemurafenib: 0.72
- lactate per cell with vemurafenib: 0.83
- activity call: inactive

SELP (selectin P)
- cell gain with vemurafenib: 0.58
- lactate per cell with vemurafenib: 0.92
- activity call: inactive

PCDHA12 (protocadherin alpha 12)
- cell gain with vemurafenib: 0.36
- lactate per cell with vemurafenib: 1.92
- activity call: inactive

PAQR9 (progestin and adipoQ receptor family member 9)
- cell gain with vemurafenib: 0.35
- lactate per cell with vemurafenib: 1.5
- activity call: inactive

SMARCAD1 (SNF2 related chromatin remodeling ATPase with DExD box 1)
- cell gain with vemurafenib: 0.58
- lactate per cell with vemurafenib: 0.77
- activity call: inactive

EFCAB11 (EF-hand calcium binding domain 11)
- cell gain with vemurafenib: 0.52
- lactate per cell with vemurafenib: 1.48
- activity call: inactive
